## Primary screen of a compound library

Chains of the proteins cited; added tags and fusions are not shown. Residues count along the entry.
UniProt P9WPC5, whole entry: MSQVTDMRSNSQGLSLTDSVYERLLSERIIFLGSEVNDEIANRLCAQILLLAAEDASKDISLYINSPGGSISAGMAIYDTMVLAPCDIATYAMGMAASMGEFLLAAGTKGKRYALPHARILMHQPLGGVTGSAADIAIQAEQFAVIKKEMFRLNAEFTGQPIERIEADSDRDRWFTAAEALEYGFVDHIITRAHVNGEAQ
UniProt P9WPC3, whole entry partner: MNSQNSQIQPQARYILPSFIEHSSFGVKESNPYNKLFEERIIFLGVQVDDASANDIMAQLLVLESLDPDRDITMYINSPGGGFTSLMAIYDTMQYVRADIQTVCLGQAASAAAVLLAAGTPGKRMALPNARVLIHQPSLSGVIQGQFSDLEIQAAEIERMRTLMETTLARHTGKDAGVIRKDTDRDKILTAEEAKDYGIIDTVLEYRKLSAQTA
UniProt P9WNZ1, whole entry: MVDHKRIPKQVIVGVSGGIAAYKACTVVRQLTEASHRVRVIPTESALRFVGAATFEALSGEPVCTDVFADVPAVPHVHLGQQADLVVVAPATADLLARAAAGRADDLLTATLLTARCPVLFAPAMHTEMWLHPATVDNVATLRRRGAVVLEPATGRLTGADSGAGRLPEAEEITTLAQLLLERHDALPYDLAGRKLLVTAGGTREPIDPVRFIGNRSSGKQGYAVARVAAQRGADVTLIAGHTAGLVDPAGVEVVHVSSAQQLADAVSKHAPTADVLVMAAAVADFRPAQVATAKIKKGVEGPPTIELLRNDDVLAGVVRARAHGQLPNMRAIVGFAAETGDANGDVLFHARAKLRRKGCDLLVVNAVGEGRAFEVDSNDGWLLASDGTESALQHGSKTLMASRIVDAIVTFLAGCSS
UniProt Q8IDJ8, 1-583: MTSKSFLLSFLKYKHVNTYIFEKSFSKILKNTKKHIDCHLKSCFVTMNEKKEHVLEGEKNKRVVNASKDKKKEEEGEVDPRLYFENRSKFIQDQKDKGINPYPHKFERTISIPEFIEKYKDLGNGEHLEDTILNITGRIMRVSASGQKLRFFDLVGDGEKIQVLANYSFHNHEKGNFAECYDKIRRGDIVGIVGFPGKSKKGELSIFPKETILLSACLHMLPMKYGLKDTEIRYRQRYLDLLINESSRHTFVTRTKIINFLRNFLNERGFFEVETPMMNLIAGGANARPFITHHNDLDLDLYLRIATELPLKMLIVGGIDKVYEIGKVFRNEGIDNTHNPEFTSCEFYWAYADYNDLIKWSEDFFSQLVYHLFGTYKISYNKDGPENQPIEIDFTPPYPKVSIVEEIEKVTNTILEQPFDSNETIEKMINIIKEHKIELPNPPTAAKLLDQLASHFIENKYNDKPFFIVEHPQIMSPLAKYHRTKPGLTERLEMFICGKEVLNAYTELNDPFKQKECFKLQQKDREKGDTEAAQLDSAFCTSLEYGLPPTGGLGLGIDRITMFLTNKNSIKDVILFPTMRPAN
UniProt Q4DA54, 1-478: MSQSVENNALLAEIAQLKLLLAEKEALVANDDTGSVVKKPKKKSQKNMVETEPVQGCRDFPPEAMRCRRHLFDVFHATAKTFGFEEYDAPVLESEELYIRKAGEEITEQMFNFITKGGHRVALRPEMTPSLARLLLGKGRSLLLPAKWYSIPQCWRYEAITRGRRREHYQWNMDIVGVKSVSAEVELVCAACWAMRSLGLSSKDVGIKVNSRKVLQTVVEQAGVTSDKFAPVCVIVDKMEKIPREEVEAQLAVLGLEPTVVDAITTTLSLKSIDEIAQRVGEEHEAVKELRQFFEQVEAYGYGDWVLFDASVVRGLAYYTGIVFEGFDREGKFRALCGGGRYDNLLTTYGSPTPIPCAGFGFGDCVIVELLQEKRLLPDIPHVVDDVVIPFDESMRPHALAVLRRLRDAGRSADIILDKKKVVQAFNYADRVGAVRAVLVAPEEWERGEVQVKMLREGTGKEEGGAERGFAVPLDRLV
UniProt I6X8D2, whole entry: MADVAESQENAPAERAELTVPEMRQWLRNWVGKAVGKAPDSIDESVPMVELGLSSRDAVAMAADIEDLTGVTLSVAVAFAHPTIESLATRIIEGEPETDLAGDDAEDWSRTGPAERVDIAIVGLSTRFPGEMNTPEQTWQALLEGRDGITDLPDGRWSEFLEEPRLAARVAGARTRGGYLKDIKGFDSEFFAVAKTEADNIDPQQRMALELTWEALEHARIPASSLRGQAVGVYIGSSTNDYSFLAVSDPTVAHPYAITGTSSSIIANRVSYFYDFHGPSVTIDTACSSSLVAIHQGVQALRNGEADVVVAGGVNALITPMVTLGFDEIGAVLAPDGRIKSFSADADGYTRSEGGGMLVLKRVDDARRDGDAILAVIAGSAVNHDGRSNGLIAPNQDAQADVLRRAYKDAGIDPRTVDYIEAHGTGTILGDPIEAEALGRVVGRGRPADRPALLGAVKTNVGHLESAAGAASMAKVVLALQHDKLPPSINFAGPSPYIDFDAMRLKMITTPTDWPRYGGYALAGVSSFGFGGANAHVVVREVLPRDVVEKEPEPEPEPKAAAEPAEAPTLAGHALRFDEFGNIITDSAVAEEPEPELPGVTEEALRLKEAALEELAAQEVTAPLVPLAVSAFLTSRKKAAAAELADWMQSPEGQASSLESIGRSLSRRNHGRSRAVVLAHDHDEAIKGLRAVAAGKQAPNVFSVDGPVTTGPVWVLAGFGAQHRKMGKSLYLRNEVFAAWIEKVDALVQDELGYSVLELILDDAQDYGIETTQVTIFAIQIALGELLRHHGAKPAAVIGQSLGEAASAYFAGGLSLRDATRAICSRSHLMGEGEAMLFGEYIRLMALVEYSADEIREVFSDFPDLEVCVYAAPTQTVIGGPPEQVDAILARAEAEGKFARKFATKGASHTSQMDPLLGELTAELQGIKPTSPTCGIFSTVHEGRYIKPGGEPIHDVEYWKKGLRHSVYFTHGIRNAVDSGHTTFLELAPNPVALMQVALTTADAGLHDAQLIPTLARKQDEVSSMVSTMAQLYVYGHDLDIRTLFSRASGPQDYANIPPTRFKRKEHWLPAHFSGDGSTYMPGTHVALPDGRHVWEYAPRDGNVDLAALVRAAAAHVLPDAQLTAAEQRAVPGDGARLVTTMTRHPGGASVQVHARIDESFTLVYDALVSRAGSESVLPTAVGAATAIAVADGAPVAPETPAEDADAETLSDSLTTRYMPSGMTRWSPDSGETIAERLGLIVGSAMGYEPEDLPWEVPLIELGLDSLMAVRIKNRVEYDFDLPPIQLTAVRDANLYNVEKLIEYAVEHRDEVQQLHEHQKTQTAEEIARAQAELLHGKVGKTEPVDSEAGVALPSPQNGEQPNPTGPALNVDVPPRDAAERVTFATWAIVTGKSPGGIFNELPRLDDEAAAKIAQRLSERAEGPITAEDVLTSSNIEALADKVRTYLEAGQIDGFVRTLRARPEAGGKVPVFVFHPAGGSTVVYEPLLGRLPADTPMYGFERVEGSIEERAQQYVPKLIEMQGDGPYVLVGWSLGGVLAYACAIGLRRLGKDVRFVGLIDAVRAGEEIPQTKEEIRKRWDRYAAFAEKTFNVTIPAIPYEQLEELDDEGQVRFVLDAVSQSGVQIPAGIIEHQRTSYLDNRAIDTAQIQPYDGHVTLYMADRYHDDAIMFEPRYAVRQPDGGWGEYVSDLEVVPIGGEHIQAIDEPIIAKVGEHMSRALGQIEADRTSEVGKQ

Data taken from ChEMBL document CHEMBL3988442, “University of Dundee, Small-Polar-MMV Screening Library” (2021).

Each number is a percent effect as filed. How 0% and 100% were set is not recorded. Most values in the screen are low, and negative values occur. This is an unselected part of the compounds tested. A dash means the value is not listed here; it may have been measured.

A: 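Protease assay of ClpP1P2, read by the AMC dye that it sets free. Target: ClpP1P2, Mycobacterium tuberculosis (UniProt P9WPC5 and UniProt P9WPC3). Compounds at 50 µM. Direction is inferred from only a few compounds that gave an IC50; most scored high, so higher reads as stronger inhibition. Most other retested compounds had strongly negative values. Size under these conditions: about 69,000 compounds, about 10 of them at 50% or above in at least one test.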
B: 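Enzyme assay of CoaBC with a phosphate dye (Biomol Green) read at 650 nm. Target: Coenzyme A biosynthesis protein CoaBC, Mycobacterium tuberculosis (UniProt P9WNZ1). Tested at 30 µM. Direction is inferred from only a few compounds that gave an IC50; most scored high, so higher reads as stronger inhibition. Most strong results did not repeat in a second test. Of about 67,000 compounds tested this way, about 40 (0.06%) reached 50% or more in at least one test.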
C: 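Lysine-tRNA ligase, Plasmodium falciparum 3D7 (UniProt Q8IDJ8). Enzyme assay of the cytosolic lysyl-tRNA synthetase in 384-well plates, read by luminescence. Tested at 30 µM. Direction is inferred from only a few compounds that gave an IC50; most scored high, so higher reads as stronger inhibition. Of about 69,000 compounds tested this way, about 49 (0.071%) reached 50% or more in at least one test.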
D: 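Histidine-tRNA ligase, Trypanosoma cruzi CL Brener (UniProt Q4DA54). Enzyme assay of histidyl-tRNA synthetase; the read-out is not stated. Concentration: 30 µM. Direction is inferred from retests: higher values go with stronger inhibition. About 69,000 compounds were tested under these conditions; 0.045% (about 31) showed 50% or more at least once.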
E: 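Polyketide synthase Pks13, Mycobacterium tuberculosis (UniProt I6X8D2). Enzyme assay of the thioesterase domain of polyketide synthase 13; the read-out is not stated. Compounds at 30 µM. Higher reads as stronger inhibition (inferred from which compounds were picked for retests). Size under these conditions: about 67,000 compounds, about 300 of them at 50% or above in at least one test.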

compound,A,B,C,D,E
Cc1nn(C)c(N2CCOCC2)c1CNCc1nccs1,10.34%,1.862%,3.335%,1.141%,-16.71%
CC(=O)N1CCC(C(=O)NC2CCc3nccn3C2)CC1 (centres undefined),-4.428%,4.994%,5.441%,5.521%,-5.643%
O=C(c1ccco1)N1CCC2(CC1)C(=O)NCCN2CC1CC1,2.113%,-2.445%,2.161%,3.825%,-18.36%
CCS(=O)(=O)N[C@H]1CN(Cc2noc(COC)n2)C[C@@H]1C1CC1,7.865%,6.846%,9.579%,3.627%,-25.97%
CC(NC(=O)N1CCC(n2cncn2)CC1)c1ccc(F)cc1 (centres undefined),-4.737%,5.357%,-0.1845%,2.339%,-0.6203%
Cc1ccccc1CC(C)(C)NC(=O)CCOc1cccc(C(N)=O)c1,-16.06%,-8.861%,7.661%,4.433%,0.5169%
CSc1cccc(CN(C)C(=O)Cn2ncc(N(C)C)cc2=O)c1,-6.509%,5.844%,2.935%,5.6%,-6.705%
COc1ncccc1C(=O)N1CCCC1c1c(C)nn(C)c1Cl (centres undefined),-5.47%,4.29%,0.3752%,2.564%,-11.39%
Cc1cc(C(F)(F)F)nc(CNC(=O)CCC2CCCN(C)C2)n1 (centres undefined),3.708%,5.211%,2.94%,7.514%,-4.473%
O=C(c1ccncc1F)N1CCOC(c2cccc(O)c2)C1 (centres undefined),-2.417%,-,-3.348%,5.732%,-5.824%
O=C(c1ccc(-c2ccsc2)nc1)N1CCCN(C2CCCCC2)CC1,10.82%,5.948%,0%,-0.5181%,-16.38%
CCNC(=O)N1CCCC(C(=O)c2cccc(OC(C)C)c2)C1 (centres undefined),-11.12%,-0.6316%,-5.379%,-1.667%,5.04%
Cc1ncc(-c2ccnc(NCCO)n2)c(C2CCCCC2)n1,-4.891%,-1.325%,-0.03887%,6.78%,-32.06%
Cc1ncsc1C(=O)NC1CCN(CC(=O)NCc2ccccc2)CC1,1.958%,2.17%,1.508%,2.273%,-9.343%
O=C(NCCO)C1(Cc2ccccc2-c2cccnc2)CCOCC1,4.152%,6.304%,-0.471%,-27.38%,0.6443%
Cc1ccc(S(=O)(=O)NC(C)C#N)cc1Br (centres undefined),2.73%,-1.629%,5.888%,4.762%,-15.91%
Cn1cccc1C(CNC(=O)COc1ccc(Cl)cc1Cl)N1CCCC1 (centres undefined),1.262%,0.2114%,2.863%,1.031%,-32.52%
O=C(c1ccnnc1)N1CC2(CCN(c3ncccn3)C2)C1,-6.067%,3.484%,4.926%,6.897%,-34.88%
CN(CC(=O)NCC(F)(F)F)C(=O)c1ccc(C(=O)OC(C)(C)C)cc1,24.51%,1.347%,1.525%,14.14%,-6.441%
O=C(NCCc1nccs1)c1cn(CCN2CCNCC2)nn1,-6.142%,2.427%,2.278%,1.657%,-1.425%
Cc1cc2n(n1)CC(CNCc1cnn(C)c1)CN2 (centres undefined),2.03%,-23.79%,3.936%,0.8403%,-16.45%
CCC(CN1CCCC1)NC(=O)C1(c2cccc(F)c2)CC1 (centres undefined),-12.39%,-4.439%,2.193%,8.333%,1.322%
CC1(C)CN(C(=O)Nc2cc(C(F)(F)F)c[nH]c2=O)CCO1,20.35%,12.46%,3.872%,9.091%,-2.25%
CCN(C)c1ccc(CNS(=O)(=O)C2CCOCC2)cc1F,0.2879%,-6.64%,-0.7565%,0.5618%,-20.85%
CC(C)Cc1noc(CNc2cccc(-c3nnnn3C)c2)n1,-4.834%,4.327%,0.4514%,5.063%,-6.4%
CN(C)C(=O)CN1CCc2onc(-c3ccccc3F)c2C1,12.56%,-2.405%,-1.141%,4.878%,0.38%
COc1cc(N2CC[C@H]3O[C@@H](C(=O)NC4CCCC4)CC[C@H]32)ncn1,-10.29%,-10.23%,-1.58%,0%,-10.94%
CN1CCOC(CNCc2nc(-c3ccco3)no2)C1 (centres undefined),3.362%,-2.376%,2.97%,7.143%,-21.49%
Cc1nc(CN2CCCC(c3nccs3)C2)cs1 (centres undefined),-16.89%,3.349%,0.4556%,10.34%,11.74%
O=C(c1cccs1)N1CCOCC2(C1)CN(c1cccnc1)C(=O)CO2 (centres undefined),-3.011%,-10.73%,3.491%,10.48%,-17.52%

Repeated from the top, 2 entries:

{"compound": "Cc1nn(C)c(N2CCOCC2)c1CNCc1nccs1", "A": 10.34, "B": 1.862, "C": 3.335, "D": 1.141, "E": -16.71}
{"compound": "CC(=O)N1CCC(C(=O)NC2CCc3nccn3C2)CC1", "stereo": "centres undefined", "A": -4.428, "B": 4.994, "C": 5.441, "D": 5.521, "E": -5.643}